Values from PubChem BioAssay AID1671195 (Yale University, 2021).

Test: 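Knockdowns that increase or decrease uptake of fluorescent LDL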 (primary screen)
Cell system: human Huh7 hepatoma cells
Reagents: siRNA pool against human genes, 18 nM
Duration: about 2 to 2.5 days of knockdown, then 8 h LDL uptake
Challenge: DiI-labelled LDL at 30 µg/ml for 8 h, in lipoprotein-deficient serum medium
Read-out: 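Per-cell DiI-LDL intensity by automated imaging; well means scaled to the plate median and given as a robust z-score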
Scale: robust z-score: higher = more LDL uptake after knockdown
Call rule: 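a gene counts as active if at least two replicate z-scores exceed ±2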
In all, the deposit lists about 22,000 reagents; this is a random part of them. Over the whole deposit, about 1,510 (6.9%) are marked active. 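Active includes knockdowns raising or lowering LDL uptake; positive z-scores mean more uptake, negative mean less.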 A number with no mark means an inactive call.

gene knocked down	robust z-score, replicate 1	robust z-score, replicate 2	robust z-score, replicate 3
SMCP (sperm mitochondria associated cysteine rich protein)	0.525	0.707	0.754
CIMAP1C (ciliary microtubule associated protein 1C)	-0.136	0.855	-0.552
FMR1 (fragile X messenger ribonucleoprotein 1)	0.465	0.982	0.403
CDIPT (CDP-diacylglycerol--inositol 3-phosphatidyltransferase)	0.516	-0.0433	0.455
LRRIQ3 (leucine rich repeats and IQ motif containing 3)	0.0931	-0.147	0.323
PXK (PX domain containing serine/threonine kinase like)	-1.98 (active)	-1.68	-2.13
SFRP2 (secreted frizzled related protein 2)	2.57 (active)	2.16	0.404
UBA7 (ubiquitin like modifier activating enzyme 7)	0.235	-1.34	0.33
LOC442125 (retired record)	-0.0966	-0.181	0.188
BMS1P1 (BMS1 pseudogene 1)	0.776	0.876	0.758
BSCL2 (BSCL2 lipid droplet biogenesis associated, seipin)	-0.447	0.188	-1.59
GPATCH1 (G-patch domain containing 1)	0.35	-0.636	0.198

2 entries already listed, ordered by “robust z-score, replicate 2”, lowest first:
gene knocked down	robust z-score, replicate 1	robust z-score, replicate 2	robust z-score, replicate 3
UBA7 (ubiquitin like modifier activating enzyme 7)	0.235	-1.34	0.33
SFRP2 (secreted frizzled related protein 2)	2.57 (active)	2.16	0.404

The results go on:
gene knocked down	robust z-score, replicate 1	robust z-score, replicate 2	robust z-score, replicate 3
ERGIC3 (ERGIC and golgi 3)	-0.245	-1.37	-0.853
DYTN (dystrotelin)	-0.634	-0.562	-0.968
TMPO (thymopoietin)	0.934 (active)	2.75	2.64
RPAP2 (RNA polymerase II associated protein 2)	-1.47	-1.43	-1.71
RHBDF2 (rhomboid 5 homolog 2)	-0.815	-0.968	-0.962
STYXL1 (serine/threonine/tyrosine interacting like 1)	0.812	0.724	0.535
LOC442451 (retired record)	-0.893	-0.904	-0.739
F11 (coagulation factor XI)	-0.298	-0.598	-0.394
DPPA5 (developmental pluripotency associated 5)	2.98 (active)	2.63	2.8
TBC1D19 (TBC1 domain family member 19)	1.77	1.07	1.11
MARK2 (microtubule affinity regulating kinase 2)	0.597	-1.19	-1.07
NDUFV3 (NADH:ubiquinone oxidoreductase subunit V3)	0.0216	-0.576	-0.757
DPM2 (dolichyl-phosphate mannosyltransferase subunit 2, regulatory)	-1.79	-1.71	-1.94
KLF4 (KLF transcription factor 4)	-0.358	-0.361	-0.545
PIGS (phosphatidylinositol glycan anchor biosynthesis class S)	2.61 (active)	3.26	3
LOC220998 (retired record)	-0.319	-0.0901	-0.299
